{
  "source": "patent US20040220086A1",
  "about": "“Methods and materials for targeting and affecting selected cells” (priority 2001, published 2004)",
  "origin": "cited, not measured here",
  "conditions": "cited from earlier work",
  "note": "For at least one compound, name, drawing or mass did not settle the structure.",
  "data": [
    {"smiles": "[Ga]", "note": "[Gallium]", "values": [
      {"measurement": "Ionic Radius (Å)", "value": 0.62, "unit": "Å"}
    ]}
  ]
}
